Measurements: PMC8343996
No constants are given. Whether binding was seen depends on the method and setting. Binding seen in cells or lysates may run through a third protein. Some results given as binding are weak or reduced against the parent protein; the word gives no strength.

By UniProt entry, the sequences of proteins in these tests, tags left out.
UniProt P63096: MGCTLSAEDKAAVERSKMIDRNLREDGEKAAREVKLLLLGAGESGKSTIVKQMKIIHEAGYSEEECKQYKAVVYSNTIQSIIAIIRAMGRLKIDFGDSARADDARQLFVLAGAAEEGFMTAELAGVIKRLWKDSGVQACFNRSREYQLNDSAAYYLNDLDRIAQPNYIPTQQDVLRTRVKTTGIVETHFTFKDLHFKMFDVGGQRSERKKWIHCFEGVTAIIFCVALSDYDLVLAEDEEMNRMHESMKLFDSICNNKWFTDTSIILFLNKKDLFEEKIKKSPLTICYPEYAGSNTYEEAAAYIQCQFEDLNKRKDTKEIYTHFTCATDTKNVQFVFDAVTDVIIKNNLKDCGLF
UniProt P08754: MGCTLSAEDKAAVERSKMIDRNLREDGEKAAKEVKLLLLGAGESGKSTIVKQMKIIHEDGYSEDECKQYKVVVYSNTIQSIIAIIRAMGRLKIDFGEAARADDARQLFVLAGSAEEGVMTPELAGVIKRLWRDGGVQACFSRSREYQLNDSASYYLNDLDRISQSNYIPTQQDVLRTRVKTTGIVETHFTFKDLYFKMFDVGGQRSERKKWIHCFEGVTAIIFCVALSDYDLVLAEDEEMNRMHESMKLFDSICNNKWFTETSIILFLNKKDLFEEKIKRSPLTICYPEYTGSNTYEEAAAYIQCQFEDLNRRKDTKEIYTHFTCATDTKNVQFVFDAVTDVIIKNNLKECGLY

Target: T1, Gab1 (human (endogenous in U251MG)) (UniProt Q13480)
T1 sequence: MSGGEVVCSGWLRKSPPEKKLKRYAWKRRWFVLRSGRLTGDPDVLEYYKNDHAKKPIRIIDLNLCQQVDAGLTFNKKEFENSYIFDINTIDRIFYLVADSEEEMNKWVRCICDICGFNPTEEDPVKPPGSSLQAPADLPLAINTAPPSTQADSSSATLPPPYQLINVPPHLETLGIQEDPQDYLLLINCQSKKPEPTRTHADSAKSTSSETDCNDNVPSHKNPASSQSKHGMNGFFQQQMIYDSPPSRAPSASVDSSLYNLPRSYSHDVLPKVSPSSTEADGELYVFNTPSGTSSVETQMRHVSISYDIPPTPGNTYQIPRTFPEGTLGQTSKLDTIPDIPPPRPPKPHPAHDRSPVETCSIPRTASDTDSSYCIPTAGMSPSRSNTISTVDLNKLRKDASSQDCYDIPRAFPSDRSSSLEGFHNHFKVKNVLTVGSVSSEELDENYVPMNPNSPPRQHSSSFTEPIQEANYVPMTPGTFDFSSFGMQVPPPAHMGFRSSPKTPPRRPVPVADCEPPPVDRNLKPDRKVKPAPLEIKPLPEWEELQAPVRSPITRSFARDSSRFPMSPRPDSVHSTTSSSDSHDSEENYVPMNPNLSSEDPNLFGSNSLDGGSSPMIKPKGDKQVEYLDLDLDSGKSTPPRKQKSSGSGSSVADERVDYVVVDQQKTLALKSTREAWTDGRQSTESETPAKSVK
Test: co-IP; U251MG cells treated with NLGN3 (50 ng/mL) for 5 min; endogenous proteins in lysate, detected by Western blotting; protocol referred to earlier work

Gαi1 (from UniProt P63096 1-354)
binding: binds

Gαi3 (from UniProt P08754 1-354)
binding: binds
